PubChem BioAssay AID1259298 – Sanger Institute | 2017

Purpose: 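Kinases whose loss strengthens killing by BYL719, cetuximab or trametinib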 (primary screen)
Cell system: HT55 human colorectal cancer cell line
Reagent: siRNA pool against human genes
Treatment: anchor drug BYL719 1 µM, cetuximab 5 µg/ml or trametinib 10 nM, or DMSO vehicle alone
Measurement: 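Mean viability over replicates versus non-targeting pool, a robust z-score without drug, and per-drug synergy scores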
Reading the numbers: robust z-score, knock-down alone: higher = more cells remaining; low means essential gene; viability vs control pool, no drug: higher = more viable cells; synergy score with BYL719 and synergy score with cetuximab and synergy score with trametinib: higher = stronger synthetic lethality with the drug
Hit rule: 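a gene counts as essential if its knock-down-alone robust z-score falls under -3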
Calls: active = essential (knock-down alone); inactive = no change alone
The whole screen tested 794 reagents; shown is a random part of them. In the full data, 20 (2.5%) were called active. 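Calls rest only on the knock-down-alone score; drug synergy scores played no part in them.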 Unmarked entries are inactive. No viability above 1 is reported: the scale is capped. No sequences are given here. The record does not give: the amount of reagent, the time to read-out.

| target | robust z-score, knock-down alone | viability vs control pool, no drug (fraction) | synergy score with BYL719 | synergy score with cetuximab | synergy score with trametinib |
| --- | --- | --- | --- | --- | --- |
| PSKH2 (GeneID 85481) | -1.25 | 0.857 | -0.237 | -0.0395 | 0.0376 |
| MAP3K20 (GeneID 51776) | 0.58 | 1 | -0.272 | -0.21 | -0.171 |
| MAPK9 (GeneID 5601) | 0.58 | 1 | -0.272 | -0.211 | -0.0974 |
| CHD9 (GeneID 80205) | -1.11 | 0.868 | -0.0724 | 0.126 | 0.00221 |
| MINK1 (GeneID 50488) | 0.58 | 1 | -0.112 | 0.0141 | 0.0651 |
| BLK (GeneID 640) | 0.58 | 1 | -0.245 | -0.211 | -0.062 |
| EPHB1 (GeneID 2047) | 0.445 | 0.99 | -0.28 | -0.0255 | -0.0297 |
| EPHA6 (GeneID 285220) | -1.43 | 0.843 | -0.0367 | 0.0894 | 0.128 |
| PRPS1L1 (GeneID 221823) | 0.185 | 0.969 | -0.097 | -0.146 | -0.0129 |
| NR2F2 (GeneID 7026) | 0.58 | 1 | -0.127 | -0.0477 | 0.0365 |
| CDKN1B (GeneID 1027) | 0.153 | 0.967 | -0.104 | -0.02 | 0.0116 |
| EPHA1 (GeneID 2041) | 0.58 | 1 | -0.137 | -0.211 | -0.0067 |
| SOS2 (GeneID 6655) | 0.58 | 1 | -0.217 | -0.0888 | -0.0307 |
| FLT1 (GeneID 2321) | 0.58 | 1 | -0.185 | -0.211 | 0.00476 |
| PACSIN1 (GeneID 29993) | -0.379 | 0.925 | -0.19 | -0.0501 | 0.166 |
| CAMK1 (GeneID 8536) | 0.58 | 1 | -0.0258 | -0.0581 | 0.0146 |
| PHKA2 (GeneID 5256) | 0.58 | 1 | -0.0891 | -0.0611 | -0.0459 |
| APC (GeneID 324) | -0.561 | 0.911 | -0.15 | 0.0655 | 0.123 |
| OBSCN (GeneID 84033) | 0.58 | 1 | -0.268 | -0.182 | -0.165 |
| FOXP1 (GeneID 27086) | -1.26 | 0.856 | -0.0404 | -0.0335 | 0.0522 |
| EPHA7 (GeneID 2045) | -2.88 | 0.73 | -0.256 | -0.236 | 0.00272 |
| SGK1 (GeneID 6446) | 0.39 | 0.985 | -0.105 | -0.172 | 0.0259 |
| NEK10 (GeneID 152110) | -0.887 | 0.885 | -0.161 | -0.157 | 0.0303 |
| EPHA4 (GeneID 2043) | -0.883 | 0.886 | -0.249 | -0.109 | -0.0602 |
| STYK1 (GeneID 55359) | 0.58 | 1 | -0.24 | -0.152 | 0.0965 |
| MAP3K19 (GeneID 80122) | -1.28 | 0.854 | -0.0416 | 0.0405 | 0.0504 |
| MARK4 (GeneID 57787) | -0.389 | 0.924 | -0.113 | 0.0151 | 0.102 |
| CIB2 (GeneID 10518) | 0.58 | 1 | -0.213 | -0.168 | -0.0156 |
| NME2 (GeneID 4831) | 0.316 | 0.979 | -0.131 | -0.068 | 0.0496 |
| PKDCC (GeneID 91461) | 0.58 | 1 | -0.196 | -0.0197 | 0.0689 |
| RPS6KB1 (GeneID 6198) | -0.703 | 0.9 | -0.313 | -0.157 | -0.0159 |
| AKT2 (GeneID 208) | -0.247 | 0.935 | 0.0119 | -0.0981 | -0.00802 |
| AAK1 (GeneID 22848) | 0.403 | 0.986 | -0.145 | -0.155 | 0.0109 |
| EPHA2 (GeneID 1969) | 0.58 | 1 | -0.272 | -0.211 | -0.213 |
| TSKS (GeneID 60385) | 0.58 | 1 | -0.272 | -0.134 | -0.156 |
| PAK1 (GeneID 5058) | -0.741 | 0.897 | -0.226 | 0.104 | 0.119 |
| PIK3C2A (GeneID 5286) | 0.365 | 0.983 | 0.0288 | 0.168 | 0.114 |
| ALK (GeneID 238) | 0.559 | 0.998 | -0.151 | -0.213 | -0.0249 |
| PRKCSH (GeneID 5589) | 0.58 | 1 | -0.164 | -0.16 | -0.0252 |
| PRKG1 (GeneID 5592) | 0.36 | 0.983 | -0.181 | 0.0141 | 0.1 |
| STK3 (GeneID 6788) | 0.58 | 1 | -0.272 | -0.211 | -0.0558 |

Reprinted from the entries so far (5 entries):
| target | robust z-score, knock-down alone | viability vs control pool, no drug (fraction) | synergy score with BYL719 | synergy score with cetuximab | synergy score with trametinib |
| --- | --- | --- | --- | --- | --- |
| PKDCC (GeneID 91461) | 0.58 | 1 | -0.196 | -0.0197 | 0.0689 |
| RPS6KB1 (GeneID 6198) | -0.703 | 0.9 | -0.313 | -0.157 | -0.0159 |
| AKT2 (GeneID 208) | -0.247 | 0.935 | 0.0119 | -0.0981 | -0.00802 |
| AAK1 (GeneID 22848) | 0.403 | 0.986 | -0.145 | -0.155 | 0.0109 |
| EPHA2 (GeneID 1969) | 0.58 | 1 | -0.272 | -0.211 | -0.213 |

Further results follow.
| target | robust z-score, knock-down alone | viability vs control pool, no drug (fraction) | synergy score with BYL719 | synergy score with cetuximab | synergy score with trametinib |
| --- | --- | --- | --- | --- | --- |
| CDK6 (GeneID 1021) | -1.51 | 0.836 | -0.192 | -0.0483 | 0.146 |
| ETNK1 (GeneID 55500) | -0.276 | 0.933 | -0.188 | 0.0315 | 0.0154 |
| BCKDK (GeneID 10295) | 0.58 | 1 | -0.21 | -0.211 | -0.15 |
| CDK13 (GeneID 8621) | 0.495 | 0.993 | -0.185 | -0.0148 | 0.0948 |
| PRKAA1 (GeneID 5562) | 0.58 | 1 | -0.257 | -0.211 | 0.0156 |
| PAPSS1 (GeneID 9061) | 0.58 | 1 | -0.205 | -0.211 | 0.00561 |
| TAOK2 (GeneID 9344) | 0.58 | 1 | -0.222 | -0.211 | -0.165 |
| AXIN2 (GeneID 8313) | 0.58 | 1 | -0.184 | -0.155 | 0.00363 |
| HCK (GeneID 3055) | 0.58 | 1 | 0.0032 | -0.0825 | 0.129 |
| LRRK1 (GeneID 79705) | 0.58 | 1 | -0.0964 | -0.105 | 0.113 |
| PRPS2 (GeneID 5634) | 0.58 | 1 | -0.104 | -0.195 | -0.0466 |
| DGKA (GeneID 1606) | -1.9 | 0.806 | -0.184 | -0.157 | -0.0785 |
| GOLGA5 (GeneID 9950) | 0.58 | 1 | -0.272 | -0.208 | -0.101 |
| TAOK3 (GeneID 51347) | 0.58 | 1 | -0.167 | 0.0393 | 0.0601 |
| ITSN1 (GeneID 6453) | 0.58 | 1 | -0.272 | -0.211 | -0.0486 |
| PAK3 (GeneID 5063) | 0.18 | 0.969 | -0.0584 | -0.0209 | 0.0777 |
| TSSK6 (GeneID 83983) | -1.52 | 0.836 | -0.0972 | -0.0924 | 0.0387 |
| PIK3C2G (GeneID 5288) | -1.44 | 0.842 | -0.17 | -0.0912 | 0.05 |
| MAP3K7 (GeneID 6885) | 0.437 | 0.989 | -0.165 | -0.0622 | -0.139 |
| PRKD1 (GeneID 5587) | 0.58 | 1 | -0.117 | -0.185 | -0.0452 |
| SRC (GeneID 6714) | 0.58 | 1 | -0.246 | -0.202 | -0.0381 |
| NADK (GeneID 65220) | 0.58 | 1 | -0.13 | -0.114 | 0.0506 |
